# From the supplement of paper PMC7877785
# ± gives the uncertainty stated by the source. Many entries were measured with a wide error.
# Test: self-splicing fitness, log relative to wild type (ln ratio); higher = more splicing; Tetrahymena group I intron in knt gene, E. coli kanamycin selection, DiMSum; sequences stand for … in CUCUCU…GGAGGGAAAAGUUAUCAGGCAUGCACCUGGUAGCUAGUCUUUAAACCAAUAGAUUGCAUCGGUUUAAAAGGCAAGACCGUCAAAUUGCGGGAAAGGGGUCAACAGCCGUUCAGUACCAAGUCUCAGGGGAAACUUUGAGAUGGCCUUGCAAAGGGUAUGGUAAUAAGCUGACGGACAUGGUCCUAACCACGCAGCCAAGUCCUAAGUCAACAGAUCUUCUGUUGAUAUGGAUGCAGUUCACAGACUAAAUGUCGGUCGGGGAAGAUGUAUUCUUCUCAUAAGAUAUAGUCGGACCUCUCCUUAAUGGGAGCUAGCGGAUGAAGUGAUGCAACACUGGAGCCGCUGGGAACUAAUUUGUAUGCGAAAGUAUAUUGAUUAGUUUUGGAGUACUCGUGGUCG
# Outline: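 DiMSum derived fitness as the error-weighted combination of fold changes across replicates, kanamycin versus no kanamycin, normalised to wild type. E. coli BL21(DE3) held the library, which randomised all eight P1ex-region intron nucleotides within the knt kanamycin-resistance gene on pET-22b(+). Six replicate transformations grew overnight at 37°C or 30°C on LB agar with or without 25 μg/mL kanamycin, also containing 100 μg/mL carbenicillin, 50 μM IPTG and 0.2% rhamnose, and pooled colonies were amplicon-sequenced on an Illumina HiSeq 2500.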
Sequence,self-splicing fitness (ln) (30 °C),self-splicing fitness (ln) (37 °C)
UCGAAGCAAUAUUACGUGUU,-3.56 ± 0.2,-2.47 ± 0.19
GUGCAGCAAUAUUACGCCCA,-0.167 ± 0.87,–
UAAGAGCAAUAUUACGGUAC,-4.09 ± 1,–
CAGCAGCAAUAUUACGAGUC,-4.41 ± 0.29,-2.24 ± 0.14
CUCGAGCAAUAUUACGCCGC,-3.07 ± 0.68,–
UGAAAGCAAUAUUACGCCUC,–,-2.43 ± 0.5
GCAAAGCAAUAUUACGCCAG,-2.38 ± 0.15,-3.19 ± 0.29
AUGGAGCAAUAUUACGUACA,-1.81 ± 0.66,-0.842 ± 0.62
UUCUAGCAAUAUUACGCCAU,–,-3.35 ± 0.52
AAGGAGCAAUAUUACGAGUG,-4.23 ± 1,–
UCGGAGCAAUAUUACGGCCG,–,-0.784 ± 0.55
ACUGAGCAAUAUUACGACCG,-1.3 ± 0.17,-0.981 ± 0.23
CGGGAGCAAUAUUACGAGUC,-4.04 ± 0.52,–
CUAAAGCAAUAUUACGUCCC,-2.98 ± 0.63,-2.09 ± 0.63
ACGGAGCAAUAUUACGCCAC,-2.9 ± 0.67,-1.61 ± 0.51
CCAGAGCAAUAUUACGGAUC,–,-1.1 ± 0.59
UUCUAGCAAUAUUACGUCAC,-4.66 ± 0.59,–
CCACAGCAAUAUUACGGUCA,-3.27 ± 0.21,-3.22 ± 0.34
GCAAAGCAAUAUUACGUGUA,-0.807 ± 0.071,-0.701 ± 0.074
UGCUAGCAAUAUUACGCCGC,-2.62 ± 1.1,-2.25 ± 0.64
UUGGAGCAAUAUUACGCUCG,-0.158 ± 0.62,-0.0228 ± 0.55
GUGGAGCAAUAUUACGGAUG,–,-2.58 ± 0.62
UGUGAGCAAUAUUACGAGCC,–,-2.71 ± 0.62
CAUUAGCAAUAUUACGGAAC,-3.94 ± 0.59,–

Sequence,self-splicing fitness (ln) (30 °C),self-splicing fitness (ln) (37 °C)
UCUCAGCAAUAUUACGUGGA,-3.7 ± 0.29,-1.05 ± 0.12
CGGGAGCAAUAUUACGGCUA,–,-2.25 ± 0.51
GUGCAGCAAUAUUACGGAGA,-4.17 ± 1.1,–
CAGGAGCAAUAUUACGUCAC,-3.83 ± 0.6,–
ACUUAGCAAUAUUACGGCCU,-0.24 ± 0.1,0.312 ± 0.11
CUGGAGCAAUAUUACGUUGC,–,-1.88 ± 0.58
CAGUAGCAAUAUUACGCCGU,-2.93 ± 0.36,-0.37 ± 0.19
CAUUAGCAAUAUUACGCCGC,–,-2.52 ± 1.1
AACGAGCAAUAUUACGAUUC,-3.31 ± 1,–
GGGGAGCAAUAUUACGAAGU,–,-3.37 ± 0.6
UUUGAGCAAUAUUACGAAAG,-4.44 ± 0.51,–
UUGGAGCAAUAUUACGAACA,-1.14 ± 0.63,–
AAGCAGCAAUAUUACGAGGU,-3.55 ± 0.16,-2.65 ± 0.19
UAUCAGCAAUAUUACGAGUC,-4.5 ± 0.6,–
CAUGAGCAAUAUUACGCUUA,-3.77 ± 0.43,-2.19 ± 0.25
CAGUAGCAAUAUUACGAAUC,–,-2.29 ± 0.63
CACCAGCAAUAUUACGUUAU,-3.86 ± 0.12,-3.32 ± 0.15
UGGAAGCAAUAUUACGUCCA,–,-2.09 ± 0.64
GAGGAGCAAUAUUACGUCAA,–,-3.62 ± 0.52
GAGUAGCAAUAUUACGGUCC,–,-1.15 ± 0.87
CGCAAGCAAUAUUACGUACU,-1.64 ± 0.075,-0.119 ± 0.096
UGACAGCAAUAUUACGGGCC,-3.34 ± 0.22,-2.23 ± 0.27
CGCUAGCAAUAUUACGCAAA,-2.81 ± 0.53,–
AUUAAGCAAUAUUACGCCGC,-3.43 ± 1,–

Sequence,self-splicing fitness (ln) (30 °C),self-splicing fitness (ln) (37 °C)
AGGGAGCAAUAUUACGACGG,-4.4 ± 1,-3.09 ± 1
UUGAAGCAAUAUUACGGGCG,-0.128 ± 0.061,0.407 ± 0.084
GUGGAGCAAUAUUACGGACG,-1.96 ± 0.87,-3.77 ± 1
CGUGAGCAAUAUUACGCUUA,-4.63 ± 1,–
UCGGAGCAAUAUUACGAUAA,-2.49 ± 0.57,-1.78 ± 0.82
GAGCAGCAAUAUUACGAGAG,-4.27 ± 1,–
AUUUAGCAAUAUUACGCAGG,–,-2.42 ± 0.56
CGGUAGCAAUAUUACGCACA,-0.755 ± 0.26,-0.0778 ± 0.19
UACGAGCAAUAUUACGCAGU,-3.15 ± 0.26,-2.95 ± 0.33
AUUGAGCAAUAUUACGUCGC,-4.73 ± 1,–
UCAAAGCAAUAUUACGAUAA,-1.43 ± 0.11,-0.335 ± 0.13
CUCUAGCAAUAUUACGCACC,–,-1.84 ± 1.1
GUGUAGCAAUAUUACGAGGA,–,-2.17 ± 0.56
GGGGAGCAAUAUUACGAGCA,–,-1.4 ± 0.55
AGAAAGCAAUAUUACGGAGC,-4.74 ± 0.73,-3.91 ± 0.59
UAUCAGCAAUAUUACGACUA,0.123 ± 0.068,0.517 ± 0.095
GUGUAGCAAUAUUACGAGCG,-3.9 ± 0.53,–
CCGGAGCAAUAUUACGGAGG,-4.17 ± 0.51,–
UCUGAGCAAUAUUACGUUCG,-4.14 ± 0.73,-2.76 ± 1.1
UUCGAGCAAUAUUACGCCAU,-4.6 ± 0.72,-1.32 ± 0.57
GAUUAGCAAUAUUACGGUCC,–,-2.9 ± 0.75
UGGGAGCAAUAUUACGCCCA,–,-1.68 ± 0.53
UUCGAGCAAUAUUACGGUUC,-3.6 ± 1,-3.12 ± 0.6
UAAGAGCAAUAUUACGGGGA,-3.9 ± 1,-2.45 ± 0.54

# Complete entries as entered above:
# AUUGAGCAAUAUUACGUCGC reads self-splicing fitness (ln) (30 °C) = -4.73 ± 1
# UUCGAGCAAUAUUACGGUUC reads self-splicing fitness (ln) (30 °C) = -3.6 ± 1; self-splicing fitness (ln) (37 °C) = -3.12 ± 0.6

# Fetched one by one from the list above:
Sequence,self-splicing fitness (ln) (30 °C),self-splicing fitness (ln) (37 °C)
UUCGAGCAAUAUUACGGUUC,-3.6 ± 1,-3.12 ± 0.6
CUCUAGCAAUAUUACGCACC,–,-1.84 ± 1.1
GUGUAGCAAUAUUACGAGGA,–,-2.17 ± 0.56

# Later entries:

Sequence,self-splicing fitness (ln) (30 °C),self-splicing fitness (ln) (37 °C)
AGAUAGCAAUAUUACGUUGC,-4.33 ± 1,-2.24 ± 0.78
GUCUAGCAAUAUUACGUCAG,-2.71 ± 1.1,-0.648 ± 0.73
UAUGAGCAAUAUUACGAGAU,-2.83 ± 0.57,–
CAGGAGCAAUAUUACGUCUC,-5.49 ± 1,–
CUCUAGCAAUAUUACGUAUC,-4.04 ± 1,-3.04 ± 0.74
GUCAAGCAAUAUUACGCACU,-1.71 ± 0.062,-0.433 ± 0.072
CGAAAGCAAUAUUACGCGUC,-3.68 ± 0.62,–
UUAAAGCAAUAUUACGUGGC,-3.08 ± 0.15,-2.98 ± 0.3
UGUUAGCAAUAUUACGUAGC,-4.43 ± 0.59,–
AUGAAGCAAUAUUACGGUAC,-1.71 ± 0.14,-0.139 ± 0.13
CUUGAGCAAUAUUACGUAAA,-4.89 ± 1,–
CUGAAGCAAUAUUACGAAUC,–,-1.88 ± 1.2
ACAUAGCAAUAUUACGGCUG,-0.175 ± 0.067,-0.366 ± 0.095
ACGGAGCAAUAUUACGAAGU,-5.18 ± 1,-3.86 ± 0.73
AUUCAGCAAUAUUACGUACC,-0.843 ± 0.061,-0.514 ± 0.089
UCGGAGCAAUAUUACGGAAU,-3.86 ± 1,–
UGCAAGCAAUAUUACGAGUA,-0.888 ± 0.083,0.181 ± 0.083
ACGGAGCAAUAUUACGUAGC,-4.6 ± 1,–
UAUGAGCAAUAUUACGCGCC,–,-2.51 ± 0.63
AUCGAGCAAUAUUACGCCGC,-1.96 ± 0.51,–
CUCCAGCAAUAUUACGUAAA,-3.45 ± 0.17,-2.17 ± 0.18
AGUGAGCAAUAUUACGGUAG,–,-2.58 ± 0.62
